PubChem BioAssay AID1224830 – NIAID – 2016

Assay: 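Host factors that control LPS-induced TNF expression in human macrophages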 (primary screen)
System: human THP-1 monocytic leukaemia cells, TNF dual-luciferase reporter clone, PMA-differentiated to macrophage-like cells
Knock-down reagent: siRNA pool against human genes, 50 nM
Timing: LPS for 4 h, given about 3 days after siRNA transfection
Treatment: bacterial LPS (TLR4 ligand), 10 ng/ml
Detection: 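Ratio of firefly to renilla light, scaled to the plate median and expressed as a robust z-score per replicate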
Direction: TNF reporter robust z-score: higher = stronger TNF reporter response to LPS
Rule for the call: 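a well is active when its z-score exceeds 2.8 or falls below -1.5; control wells carry no call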
Shown is an unselected part of about 18,000 reagents. About 2,900 of them (16%) were called active. 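Calls are made per well; low scores hint the gene aids the LPS response, high scores that it dampens it.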 Repeated entries: four replicate wells of each siRNA pool. No sequences are given here.

no.	gene	TNF reporter robust z-score	call
1	ACTR1B	0.11	inactive
2	ACTR1B	-0.23	inactive
3	ACTR1B	-0.3	inactive
4	ACTR1B	0.19	inactive
5	SEMA7A	0.36	inactive
6	SEMA7A	0.19	inactive
7	SEMA7A	0.35	inactive
8	SEMA7A	0.28	inactive
9	ATP13A2	0.27	inactive
10	ATP13A2	0.52	inactive
11	ATP13A2	-0.32	inactive
12	ATP13A2	-0.06	inactive
13	OPN1SW	0.16	inactive
14	OPN1SW	0.03	inactive
15	OPN1SW	-0.24	inactive
16	OPN1SW	-0.97	inactive
17	IFI35	0.5	inactive
18	IFI35	0.44	inactive
19	IFI35	0.4	inactive
20	IFI35	-0.11	inactive
21	SPTBN2	-0.42	inactive
22	SPTBN2	-0.27	inactive
23	SPTBN2	-0.09	inactive
24	SPTBN2	0.3	inactive
25	GTF2A2	-0.81	inactive
26	GTF2A2	0.75	inactive
27	GTF2A2	0.5	inactive
28	GTF2A2	0.22	inactive
29	FAM133B	0.3	inactive
30	FAM133B	1.74	inactive
31	FAM133B	1.22	inactive
32	FAM133B	-0.38	inactive
33	C1orf56	-0.28	inactive
34	C1orf56	-0.5	inactive
35	C1orf56	-0.44	inactive
36	SNRPN	0.78	inactive
37	SNRPN	-0.4	inactive
38	SNRPN	0.67	inactive
39	SNRPN	-0.29	inactive
40	ZNF613	0.74	inactive
41	ZNF613	-0.84	inactive
42	ZNF613	-0.56	inactive
43	ZNF613	-0.59	inactive
44	GGNBP2	-0.7	inactive
45	GGNBP2	-0.67	inactive
46	GGNBP2	-0.4	inactive
47	GGNBP2	-0.54	inactive
